The results in this text go back to ChEMBL document CHEMBL1932986, “Synthesis and in vitro antimycobacterial activity of compounds derived from (R)- and (S)-2-amino-1-butanol - The crucial role of the configuration” (Eur J Med Chem, 2012).

What all share (type): functional, organism-based
The subject of assay [1] is Escherichia coli. Briefly: Antibacterial activity against Escherichia coli ATCC 8739 at 4 mg/ml after 24 hrs by agar diffusion test.
For assay [2], the system named is Staphylococcus aureus. Briefly: Antibacterial activity against Staphylococcus aureus NRRL B 313 at 20 mg/ml after 24 hrs by agar diffusion test.
Assay [3] concerns Staphylococcus aureus. Briefly: Antibacterial activity against Staphylococcus aureus NRRL B 313 at 4 mg/ml after 24 hrs by agar diffusion test.
In assay [4] the test system is Escherichia coli. Briefly: Antibacterial activity against Escherichia coli ATCC 8739 at 20 mg/ml after 24 hrs by agar diffusion test.

With GENTAMICIN, the inhibition zone (IZ) came out at 25 mm in the assay with Escherichia coli [1], 35 mm in the assay with Staphylococcus aureus [2], 27 mm in the assay with Staphylococcus aureus [3] and 31 mm in the assay with Escherichia coli [4].
